# Source: the supplement of paper PMC12819154, “High-throughput peptide-centric local stability assay extends protein–ligand identification to membrane proteins, tissues and bacteria” (Nature Structural & Molecular Biology, 2025)
# Protein sequences, listed by entry. Tags and fused reporters are not part of them. Lines headed by an entry give the natural chain unless they say otherwise; changes in a name come on top.
# UniProt Q5U4C3: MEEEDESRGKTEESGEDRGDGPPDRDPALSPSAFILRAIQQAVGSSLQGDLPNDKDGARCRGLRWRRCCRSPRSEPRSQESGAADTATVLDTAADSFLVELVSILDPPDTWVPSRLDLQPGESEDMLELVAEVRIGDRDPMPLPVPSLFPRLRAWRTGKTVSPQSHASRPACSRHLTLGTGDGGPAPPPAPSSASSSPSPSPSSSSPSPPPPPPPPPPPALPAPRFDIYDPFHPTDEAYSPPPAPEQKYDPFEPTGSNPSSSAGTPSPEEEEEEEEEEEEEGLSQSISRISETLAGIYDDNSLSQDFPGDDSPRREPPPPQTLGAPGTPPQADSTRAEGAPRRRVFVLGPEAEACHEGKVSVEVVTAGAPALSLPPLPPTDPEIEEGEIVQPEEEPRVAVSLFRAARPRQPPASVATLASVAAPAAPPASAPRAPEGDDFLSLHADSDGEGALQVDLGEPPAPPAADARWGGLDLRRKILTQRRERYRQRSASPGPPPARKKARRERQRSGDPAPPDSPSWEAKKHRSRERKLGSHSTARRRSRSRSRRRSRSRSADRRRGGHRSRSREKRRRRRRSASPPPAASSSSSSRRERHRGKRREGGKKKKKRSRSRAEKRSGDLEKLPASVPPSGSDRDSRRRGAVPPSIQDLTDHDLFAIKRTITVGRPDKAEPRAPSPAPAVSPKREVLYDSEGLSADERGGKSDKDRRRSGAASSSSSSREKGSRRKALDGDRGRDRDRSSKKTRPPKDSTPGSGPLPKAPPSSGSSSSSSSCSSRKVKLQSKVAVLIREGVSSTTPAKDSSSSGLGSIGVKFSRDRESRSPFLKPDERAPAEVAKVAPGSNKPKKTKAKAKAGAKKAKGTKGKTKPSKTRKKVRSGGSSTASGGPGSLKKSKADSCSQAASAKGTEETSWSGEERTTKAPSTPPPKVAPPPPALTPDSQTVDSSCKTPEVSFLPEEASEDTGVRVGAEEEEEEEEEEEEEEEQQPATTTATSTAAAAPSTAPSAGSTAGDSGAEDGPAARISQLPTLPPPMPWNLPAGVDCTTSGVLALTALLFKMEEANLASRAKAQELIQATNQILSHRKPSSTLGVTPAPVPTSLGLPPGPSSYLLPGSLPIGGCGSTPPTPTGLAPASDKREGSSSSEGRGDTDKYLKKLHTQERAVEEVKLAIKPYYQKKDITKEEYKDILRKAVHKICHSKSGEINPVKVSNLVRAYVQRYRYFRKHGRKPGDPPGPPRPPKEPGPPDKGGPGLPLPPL
# UniProt Q67FY2: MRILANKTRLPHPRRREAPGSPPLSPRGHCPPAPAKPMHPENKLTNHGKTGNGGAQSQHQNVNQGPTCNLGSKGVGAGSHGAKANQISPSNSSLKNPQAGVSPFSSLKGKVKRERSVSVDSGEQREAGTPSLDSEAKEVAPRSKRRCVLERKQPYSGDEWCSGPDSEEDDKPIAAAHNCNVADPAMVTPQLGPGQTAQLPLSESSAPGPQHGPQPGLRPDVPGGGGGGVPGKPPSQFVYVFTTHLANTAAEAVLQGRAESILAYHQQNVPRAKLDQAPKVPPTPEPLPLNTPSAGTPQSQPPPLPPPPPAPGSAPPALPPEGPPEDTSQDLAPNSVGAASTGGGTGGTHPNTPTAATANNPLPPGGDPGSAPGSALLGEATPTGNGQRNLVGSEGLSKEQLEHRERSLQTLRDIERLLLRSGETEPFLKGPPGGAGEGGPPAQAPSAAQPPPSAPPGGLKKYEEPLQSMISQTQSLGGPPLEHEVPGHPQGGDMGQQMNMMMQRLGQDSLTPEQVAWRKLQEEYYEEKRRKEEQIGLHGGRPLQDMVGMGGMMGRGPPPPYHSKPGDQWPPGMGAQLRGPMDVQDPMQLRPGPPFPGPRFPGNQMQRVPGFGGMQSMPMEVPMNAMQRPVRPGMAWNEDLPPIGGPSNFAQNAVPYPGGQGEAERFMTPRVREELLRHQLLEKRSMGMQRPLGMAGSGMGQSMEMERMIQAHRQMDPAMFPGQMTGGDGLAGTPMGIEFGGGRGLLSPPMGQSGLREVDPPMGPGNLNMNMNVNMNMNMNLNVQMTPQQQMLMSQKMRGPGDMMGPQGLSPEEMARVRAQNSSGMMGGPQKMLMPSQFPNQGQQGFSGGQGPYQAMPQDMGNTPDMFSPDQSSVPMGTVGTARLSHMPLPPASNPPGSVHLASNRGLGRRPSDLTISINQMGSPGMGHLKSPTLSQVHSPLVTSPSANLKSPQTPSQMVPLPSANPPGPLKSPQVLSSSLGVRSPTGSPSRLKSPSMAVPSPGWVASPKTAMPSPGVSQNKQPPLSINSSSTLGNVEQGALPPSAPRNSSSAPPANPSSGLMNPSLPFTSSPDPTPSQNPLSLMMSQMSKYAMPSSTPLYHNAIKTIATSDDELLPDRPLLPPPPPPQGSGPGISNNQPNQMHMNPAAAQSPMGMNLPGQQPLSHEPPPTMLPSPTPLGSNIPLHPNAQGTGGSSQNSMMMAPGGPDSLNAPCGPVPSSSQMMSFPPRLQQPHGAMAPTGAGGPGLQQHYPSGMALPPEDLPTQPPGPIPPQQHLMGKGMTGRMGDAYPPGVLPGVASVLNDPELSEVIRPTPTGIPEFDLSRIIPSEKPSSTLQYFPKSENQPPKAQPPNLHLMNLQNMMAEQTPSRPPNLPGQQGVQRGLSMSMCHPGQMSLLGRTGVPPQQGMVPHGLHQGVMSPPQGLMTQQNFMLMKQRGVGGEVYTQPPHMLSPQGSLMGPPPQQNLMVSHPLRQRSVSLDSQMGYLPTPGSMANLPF
# UniProt Q60872, whole entry: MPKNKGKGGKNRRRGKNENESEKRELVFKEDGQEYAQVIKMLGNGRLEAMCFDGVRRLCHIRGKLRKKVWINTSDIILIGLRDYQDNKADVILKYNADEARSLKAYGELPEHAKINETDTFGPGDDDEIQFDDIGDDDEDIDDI
# UniProt Q6IEE6: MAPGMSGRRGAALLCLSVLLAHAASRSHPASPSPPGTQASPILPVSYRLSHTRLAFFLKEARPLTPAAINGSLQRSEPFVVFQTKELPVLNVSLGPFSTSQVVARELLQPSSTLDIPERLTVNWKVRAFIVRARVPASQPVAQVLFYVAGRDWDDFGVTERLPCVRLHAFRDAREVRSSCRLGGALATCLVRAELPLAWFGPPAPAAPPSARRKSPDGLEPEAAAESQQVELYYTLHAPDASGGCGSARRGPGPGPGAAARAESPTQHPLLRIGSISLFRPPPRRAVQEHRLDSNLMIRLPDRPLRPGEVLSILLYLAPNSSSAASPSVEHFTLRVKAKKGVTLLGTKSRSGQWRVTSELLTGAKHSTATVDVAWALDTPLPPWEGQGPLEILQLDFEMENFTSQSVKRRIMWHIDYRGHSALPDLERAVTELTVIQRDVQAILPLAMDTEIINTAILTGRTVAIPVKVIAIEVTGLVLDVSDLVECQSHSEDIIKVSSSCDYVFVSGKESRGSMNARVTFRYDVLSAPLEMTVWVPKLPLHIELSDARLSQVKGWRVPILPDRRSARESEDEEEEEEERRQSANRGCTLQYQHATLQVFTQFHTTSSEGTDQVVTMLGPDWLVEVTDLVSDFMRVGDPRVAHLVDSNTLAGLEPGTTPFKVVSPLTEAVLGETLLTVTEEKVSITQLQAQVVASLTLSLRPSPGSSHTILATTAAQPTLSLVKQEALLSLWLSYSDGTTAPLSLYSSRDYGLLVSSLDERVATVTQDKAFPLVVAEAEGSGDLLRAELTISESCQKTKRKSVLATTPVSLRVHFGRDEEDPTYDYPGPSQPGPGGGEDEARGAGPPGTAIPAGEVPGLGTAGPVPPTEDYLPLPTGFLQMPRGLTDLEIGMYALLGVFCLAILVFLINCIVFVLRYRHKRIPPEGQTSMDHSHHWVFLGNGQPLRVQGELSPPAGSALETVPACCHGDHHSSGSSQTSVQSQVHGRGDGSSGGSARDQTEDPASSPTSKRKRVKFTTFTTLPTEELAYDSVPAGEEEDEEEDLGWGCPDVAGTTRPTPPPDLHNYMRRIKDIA
# UniProt Q64685: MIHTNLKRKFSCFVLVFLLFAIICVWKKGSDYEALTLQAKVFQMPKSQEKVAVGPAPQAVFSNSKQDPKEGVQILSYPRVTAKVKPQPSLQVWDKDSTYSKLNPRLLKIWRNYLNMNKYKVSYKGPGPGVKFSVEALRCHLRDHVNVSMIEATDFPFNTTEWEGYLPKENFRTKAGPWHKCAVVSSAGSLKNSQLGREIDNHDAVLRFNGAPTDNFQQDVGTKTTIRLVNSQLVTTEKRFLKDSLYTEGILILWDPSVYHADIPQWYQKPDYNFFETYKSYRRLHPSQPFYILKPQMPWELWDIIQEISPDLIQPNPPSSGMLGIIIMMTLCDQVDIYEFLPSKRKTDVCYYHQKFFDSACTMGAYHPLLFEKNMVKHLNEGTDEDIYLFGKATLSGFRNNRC
# UniProt Q6NVF9, whole entry: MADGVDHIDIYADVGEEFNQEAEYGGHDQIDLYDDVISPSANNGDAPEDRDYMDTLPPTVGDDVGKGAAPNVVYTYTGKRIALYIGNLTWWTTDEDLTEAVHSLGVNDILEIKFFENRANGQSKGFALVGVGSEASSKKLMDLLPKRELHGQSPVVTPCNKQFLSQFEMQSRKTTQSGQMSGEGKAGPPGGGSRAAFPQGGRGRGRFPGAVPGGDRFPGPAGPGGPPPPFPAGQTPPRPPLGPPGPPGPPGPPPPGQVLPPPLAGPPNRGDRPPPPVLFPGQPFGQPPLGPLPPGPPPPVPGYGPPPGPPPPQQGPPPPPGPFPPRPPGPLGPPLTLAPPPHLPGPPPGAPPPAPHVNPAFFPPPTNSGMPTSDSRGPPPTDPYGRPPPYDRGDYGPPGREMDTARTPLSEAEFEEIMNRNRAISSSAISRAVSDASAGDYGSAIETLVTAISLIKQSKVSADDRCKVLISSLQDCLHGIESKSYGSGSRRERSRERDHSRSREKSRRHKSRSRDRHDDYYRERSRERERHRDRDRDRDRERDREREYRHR
# UniProt Q61337: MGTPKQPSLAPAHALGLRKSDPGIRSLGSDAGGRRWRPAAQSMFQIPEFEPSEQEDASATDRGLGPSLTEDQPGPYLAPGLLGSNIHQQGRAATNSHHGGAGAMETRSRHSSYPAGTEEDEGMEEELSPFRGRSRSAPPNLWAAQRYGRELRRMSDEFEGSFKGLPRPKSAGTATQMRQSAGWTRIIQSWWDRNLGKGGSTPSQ
# UniProt Q61508: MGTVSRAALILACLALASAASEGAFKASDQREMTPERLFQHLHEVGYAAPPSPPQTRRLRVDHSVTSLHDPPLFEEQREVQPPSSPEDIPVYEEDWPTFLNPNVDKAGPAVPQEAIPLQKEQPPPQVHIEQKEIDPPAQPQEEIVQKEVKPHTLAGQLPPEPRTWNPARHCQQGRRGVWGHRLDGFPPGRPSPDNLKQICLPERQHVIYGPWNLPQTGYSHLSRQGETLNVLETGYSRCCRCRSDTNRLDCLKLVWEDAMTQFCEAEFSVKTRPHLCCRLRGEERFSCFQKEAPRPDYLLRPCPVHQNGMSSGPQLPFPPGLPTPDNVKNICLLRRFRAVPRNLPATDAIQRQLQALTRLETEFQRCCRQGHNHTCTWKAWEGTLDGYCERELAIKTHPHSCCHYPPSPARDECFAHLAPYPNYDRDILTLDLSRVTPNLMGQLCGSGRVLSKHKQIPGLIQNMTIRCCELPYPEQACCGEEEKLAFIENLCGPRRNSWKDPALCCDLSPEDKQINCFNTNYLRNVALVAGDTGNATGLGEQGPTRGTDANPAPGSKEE
# UniProt Q62425: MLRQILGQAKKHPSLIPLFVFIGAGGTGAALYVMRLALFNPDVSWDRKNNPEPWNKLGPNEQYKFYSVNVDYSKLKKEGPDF
# UniProt Q64261, whole entry: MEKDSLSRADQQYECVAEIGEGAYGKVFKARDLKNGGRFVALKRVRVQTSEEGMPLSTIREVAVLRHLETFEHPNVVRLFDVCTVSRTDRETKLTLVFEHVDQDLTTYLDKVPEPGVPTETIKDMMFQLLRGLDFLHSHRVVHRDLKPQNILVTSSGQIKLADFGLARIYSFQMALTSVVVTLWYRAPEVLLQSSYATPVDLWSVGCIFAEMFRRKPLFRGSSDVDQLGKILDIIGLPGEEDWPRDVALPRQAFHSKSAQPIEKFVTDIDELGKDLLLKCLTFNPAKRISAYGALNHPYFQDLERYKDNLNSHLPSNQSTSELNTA
# UniProt Q6GQS1: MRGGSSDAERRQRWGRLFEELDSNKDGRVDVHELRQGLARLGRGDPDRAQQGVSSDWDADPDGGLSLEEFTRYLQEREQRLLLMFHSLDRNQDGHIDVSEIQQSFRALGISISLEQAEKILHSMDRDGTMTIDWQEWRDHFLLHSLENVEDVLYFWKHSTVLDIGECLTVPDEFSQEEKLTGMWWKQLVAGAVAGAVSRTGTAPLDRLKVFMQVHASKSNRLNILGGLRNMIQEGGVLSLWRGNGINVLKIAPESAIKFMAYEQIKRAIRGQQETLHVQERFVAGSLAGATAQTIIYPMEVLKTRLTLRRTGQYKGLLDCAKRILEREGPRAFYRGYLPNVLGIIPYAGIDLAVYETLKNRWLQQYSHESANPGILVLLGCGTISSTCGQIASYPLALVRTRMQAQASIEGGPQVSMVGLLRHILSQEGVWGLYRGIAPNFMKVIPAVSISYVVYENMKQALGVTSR
# The other results are listed elsewhere or left out. Small differences around the control level are noise.
# Compound: CN[C@@H]1C[C@H]2O[C@@](C)([C@@H]1OC)n1c3ccccc3c3c4c(c5c6ccccc6n2c5c31)C(=O)NC4 [staurosporine]
# Experiment: log2 fold change of pooled soluble protein (PISA), ligand vs vehicle (log2 ratio); higher = more thermally stabilized
# Conditions: ligand concentration: 20 uM; assay format: PISA pool 52.9/55.5/58.6 C
row,Target,log2 fold change of pooled soluble protein
1,UniProt Q5U4C3,-0.315
2,UniProt Q67FY2,0.0569
3,UniProt Q64471,-0.0522
4,UniProt Q64446,-0.0408
5,UniProt Q69ZQ2,-0.0535
6,UniProt Q60936,-0.0709
7,UniProt Q5U5Q9,-0.0814
8,UniProt Q60598,-0.0766
9,UniProt Q61074,0.0161
10,UniProt Q60872,-0.18
11,UniProt Q60866,-0.087
12,UniProt Q62470,-0.0224
13,UniProt Q6A4J8,-0.0683
14,UniProt Q61687,0.0108
15,UniProt Q6IEE6,-0.0251
16,UniProt Q6A026,-0.0733
17,UniProt Q64685,-0.00758
18,UniProt Q60953,0.0542

row,Target,log2 fold change of pooled soluble protein
1,UniProt Q6NVF9,0.0339
2,UniProt Q61166,-0.0786
3,UniProt Q61624,-0.0558
4,UniProt Q6A028,0.135
5,UniProt Q64133,-0.00392
6,UniProt Q61133,-0.167
7,UniProt Q62086,0.0682
8,UniProt Q61490,-0.00961
9,UniProt Q64735,0.0446
10,UniProt Q6NV83,-0.0827
11,UniProt Q61337,0.0654
12,UniProt Q61508,0.000811
13,UniProt Q5U458,0.0328
14,UniProt Q62425,-0.0295
15,UniProt Q64261,-0.172
16,UniProt Q61908,-0.142
17,UniProt Q6GQS1,0.123
18,UniProt Q60855,0.0735

# Rewritten with bars between the fields: entries from further up
row | Target | log2 fold change of pooled soluble protein
10 | UniProt Q60872 | -0.18
7 | UniProt Q62086 | 0.0682
14 | UniProt Q62425 | -0.0295
